The values that follow come from PMC5996148.

The chains behind the UniProt entries cited, without tags or fusion partners. Where a name states a change or a piece, a line headed by the entry shows the natural chain unless it says otherwise.
UniProt Q9HCP0: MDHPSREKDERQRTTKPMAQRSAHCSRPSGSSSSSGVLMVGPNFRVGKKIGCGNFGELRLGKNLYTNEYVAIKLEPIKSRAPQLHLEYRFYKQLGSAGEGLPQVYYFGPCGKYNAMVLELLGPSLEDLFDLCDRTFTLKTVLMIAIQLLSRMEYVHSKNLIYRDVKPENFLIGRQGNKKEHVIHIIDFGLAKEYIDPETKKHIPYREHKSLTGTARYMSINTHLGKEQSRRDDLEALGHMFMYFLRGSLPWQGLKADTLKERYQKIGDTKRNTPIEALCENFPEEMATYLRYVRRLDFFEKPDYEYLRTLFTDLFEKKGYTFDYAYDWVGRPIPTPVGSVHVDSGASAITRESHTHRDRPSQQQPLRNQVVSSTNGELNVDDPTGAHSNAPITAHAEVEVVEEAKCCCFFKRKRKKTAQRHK
UniProt P68400: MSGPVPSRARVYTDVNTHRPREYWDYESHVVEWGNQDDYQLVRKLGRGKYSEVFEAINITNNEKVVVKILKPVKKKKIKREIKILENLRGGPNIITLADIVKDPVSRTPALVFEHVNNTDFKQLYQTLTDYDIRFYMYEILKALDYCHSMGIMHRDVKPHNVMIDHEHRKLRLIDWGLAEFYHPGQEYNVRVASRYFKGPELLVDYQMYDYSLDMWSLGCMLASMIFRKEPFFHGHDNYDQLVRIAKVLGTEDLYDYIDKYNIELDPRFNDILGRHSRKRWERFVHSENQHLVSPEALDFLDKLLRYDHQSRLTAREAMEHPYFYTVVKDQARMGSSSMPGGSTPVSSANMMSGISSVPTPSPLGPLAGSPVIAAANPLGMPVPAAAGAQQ

“And” between values parts separate entries of the source, which are not always exact repeats. Identical values can stand only once. The list shows a part of the results. For some assays here: The exact form of the protein is not confirmed.

Some test systems named below: CRYBA1 (human); CSF1 (human); CTBP1 (human); CTNNB1 (human); CYB5B (human); CYFIP2 (human); CYP20A1 (human); CYP4F11 (human); CYTL1 (human); Calpastatin (human); Calretinin (human).
What all share (assay): protein microarray (ProtoArray v5.0), streptavidin-Alexa Fluor 647
Common to all, as to conditions: 3'-biotin; 20 mM Tris (pH 7.5), 5 mM MgCl2, 100 mM KCl, 0.1% Tween-20, A/T-rich and random oligonucleotide blockers; temperature not stated; high values mean tight binding

Another assay concerns the target CSNK1G1 (UniProt Q9HCP0).
A further assay concerns the target CSNK2A1 (UniProt P68400).
The next assay concerns the target T1, CYP1A1 (UniProt P04798).
T1 sequence: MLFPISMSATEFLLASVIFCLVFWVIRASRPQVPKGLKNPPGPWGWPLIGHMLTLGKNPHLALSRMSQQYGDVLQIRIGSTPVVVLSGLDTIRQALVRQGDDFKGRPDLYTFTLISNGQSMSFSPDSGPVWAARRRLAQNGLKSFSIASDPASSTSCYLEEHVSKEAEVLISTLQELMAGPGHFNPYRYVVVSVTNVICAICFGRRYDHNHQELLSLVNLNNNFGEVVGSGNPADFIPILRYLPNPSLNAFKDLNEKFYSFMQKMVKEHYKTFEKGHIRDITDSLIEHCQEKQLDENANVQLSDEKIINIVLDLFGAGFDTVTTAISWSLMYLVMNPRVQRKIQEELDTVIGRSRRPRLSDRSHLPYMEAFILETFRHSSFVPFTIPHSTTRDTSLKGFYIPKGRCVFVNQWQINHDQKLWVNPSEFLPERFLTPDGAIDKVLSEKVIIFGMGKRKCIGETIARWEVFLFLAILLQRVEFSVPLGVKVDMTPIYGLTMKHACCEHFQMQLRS

Assay [1] has as its system Calcium-binding protein 39-like (human).
Assay [2] has as its system Calcium/calmodulin-dependent protein kinase type 1 (human).
The subject of assay [3] is Calcium/calmodulin-dependent protein kinase type 1B (human).
Assay [4] relates to Calcyclin-binding protein (human).
Assay [5] has as its system Carboxypeptidase A2 (human).
For assay [6], the system named is Casein kinase I isoform gamma-2 (human).

As to “GGGGACAGGGGTATGGGGAGGGG [G4-3 biotinylated (CtG)]”, the binding signal with CRYBA1 (human) is -0.328 z-score; with CSF1 (human), -0.331 z-score; with CSNK1G1, 6.52 z-score; in the assay with CSNK2A1 it was 5.58 z-score; in the assay with CTBP1 (human) it was -0.325 z-score and -0.337 z-score; in the assay with CTNNB1 (human) it was -0.341 z-score. The binding signal in the assay with CYB5B (human) is -0.313 z-score; in the assay on CYFIP2 (human), -0.348 z-score; with CYP1A1, -0.322 z-score; in the assay with CYP20A1 (human) it was -0.299 z-score; in the assay on CYP4F11 (human), -0.317 z-score; with CYTL1 (human) it was -0.322 z-score. The binding signal is -0.34 z-score in assay [1]; -0.339 z-score in assay [2]; -0.319 z-score in [3]; 3.68 z-score in [4]; -0.32 z-score in the assay on Calpastatin (human); -0.322 z-score with Calretinin (human). For the same sequence, the binding signal in [5] is -0.312 z-score; in [6], 4.6 z-score.
